Experimental data: publication PMC2890605
Results are given in words; binding and its absence hold for the method and conditions named. Binding seen in cells or lysates may run through a third protein.

The chains behind the UniProt entries cited, without tags or fusion partners.
UniProt Q02224: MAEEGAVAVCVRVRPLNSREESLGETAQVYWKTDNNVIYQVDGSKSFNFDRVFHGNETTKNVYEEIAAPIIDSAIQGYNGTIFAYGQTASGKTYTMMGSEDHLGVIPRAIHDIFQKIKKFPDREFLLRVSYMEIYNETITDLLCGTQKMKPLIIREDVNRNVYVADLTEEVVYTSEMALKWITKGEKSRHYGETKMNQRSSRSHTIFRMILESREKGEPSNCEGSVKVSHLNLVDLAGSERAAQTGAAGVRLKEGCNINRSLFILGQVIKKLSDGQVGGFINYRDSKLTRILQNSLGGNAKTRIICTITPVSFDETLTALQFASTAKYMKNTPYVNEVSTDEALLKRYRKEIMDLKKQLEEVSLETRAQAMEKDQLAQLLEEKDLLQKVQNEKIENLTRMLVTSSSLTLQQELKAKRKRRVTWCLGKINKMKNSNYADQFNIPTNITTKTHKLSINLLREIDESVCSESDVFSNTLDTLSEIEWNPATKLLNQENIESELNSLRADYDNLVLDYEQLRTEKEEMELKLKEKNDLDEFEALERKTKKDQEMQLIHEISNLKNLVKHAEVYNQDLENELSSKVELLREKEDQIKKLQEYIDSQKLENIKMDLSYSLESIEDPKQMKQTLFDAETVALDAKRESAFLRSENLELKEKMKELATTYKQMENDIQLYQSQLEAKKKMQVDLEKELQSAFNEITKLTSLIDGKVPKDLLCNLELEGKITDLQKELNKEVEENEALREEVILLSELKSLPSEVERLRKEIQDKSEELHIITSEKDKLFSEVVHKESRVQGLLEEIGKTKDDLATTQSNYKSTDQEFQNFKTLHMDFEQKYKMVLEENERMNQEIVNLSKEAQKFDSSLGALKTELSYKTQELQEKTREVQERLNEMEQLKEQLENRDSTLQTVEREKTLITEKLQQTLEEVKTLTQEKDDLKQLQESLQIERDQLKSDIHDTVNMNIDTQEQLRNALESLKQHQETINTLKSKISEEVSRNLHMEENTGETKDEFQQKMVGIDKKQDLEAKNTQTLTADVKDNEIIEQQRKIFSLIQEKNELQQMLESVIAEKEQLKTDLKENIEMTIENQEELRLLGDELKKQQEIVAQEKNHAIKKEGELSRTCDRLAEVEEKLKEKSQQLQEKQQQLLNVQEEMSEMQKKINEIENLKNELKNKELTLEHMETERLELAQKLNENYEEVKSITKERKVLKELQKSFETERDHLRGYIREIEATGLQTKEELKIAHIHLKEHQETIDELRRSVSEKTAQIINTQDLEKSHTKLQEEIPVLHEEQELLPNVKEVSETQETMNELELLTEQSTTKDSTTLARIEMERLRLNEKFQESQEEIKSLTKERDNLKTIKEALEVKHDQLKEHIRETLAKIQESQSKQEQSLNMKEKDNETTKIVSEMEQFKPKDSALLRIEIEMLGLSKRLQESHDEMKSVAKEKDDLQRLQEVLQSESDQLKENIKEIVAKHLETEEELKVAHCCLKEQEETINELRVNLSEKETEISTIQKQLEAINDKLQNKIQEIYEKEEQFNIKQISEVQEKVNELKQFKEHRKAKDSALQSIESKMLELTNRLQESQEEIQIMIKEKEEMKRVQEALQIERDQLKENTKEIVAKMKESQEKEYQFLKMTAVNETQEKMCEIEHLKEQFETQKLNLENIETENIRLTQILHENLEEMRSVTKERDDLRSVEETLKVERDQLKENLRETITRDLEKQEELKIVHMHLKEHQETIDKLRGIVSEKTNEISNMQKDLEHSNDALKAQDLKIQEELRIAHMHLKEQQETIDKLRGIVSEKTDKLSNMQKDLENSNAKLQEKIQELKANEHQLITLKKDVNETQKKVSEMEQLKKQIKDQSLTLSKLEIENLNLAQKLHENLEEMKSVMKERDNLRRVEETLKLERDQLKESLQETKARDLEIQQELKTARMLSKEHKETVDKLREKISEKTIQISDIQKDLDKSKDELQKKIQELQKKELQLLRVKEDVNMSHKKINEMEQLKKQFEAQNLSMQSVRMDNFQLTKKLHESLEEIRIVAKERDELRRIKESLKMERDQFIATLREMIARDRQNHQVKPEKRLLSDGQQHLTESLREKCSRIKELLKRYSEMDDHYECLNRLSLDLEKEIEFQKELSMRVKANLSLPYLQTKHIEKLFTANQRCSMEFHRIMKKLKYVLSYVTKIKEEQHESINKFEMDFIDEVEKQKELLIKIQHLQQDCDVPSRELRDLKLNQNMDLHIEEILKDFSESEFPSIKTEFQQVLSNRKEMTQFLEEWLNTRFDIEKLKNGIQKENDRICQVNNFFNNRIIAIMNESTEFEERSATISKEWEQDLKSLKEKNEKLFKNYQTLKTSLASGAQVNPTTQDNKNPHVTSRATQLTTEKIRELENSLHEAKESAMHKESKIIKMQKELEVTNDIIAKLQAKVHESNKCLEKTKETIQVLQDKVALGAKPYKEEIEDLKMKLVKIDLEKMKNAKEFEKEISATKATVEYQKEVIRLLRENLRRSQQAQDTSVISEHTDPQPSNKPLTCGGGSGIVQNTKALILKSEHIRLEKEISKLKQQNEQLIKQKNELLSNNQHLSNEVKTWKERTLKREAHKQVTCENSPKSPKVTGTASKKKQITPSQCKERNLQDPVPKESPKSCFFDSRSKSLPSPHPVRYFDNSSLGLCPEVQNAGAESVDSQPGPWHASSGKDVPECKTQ
UniProt P49790: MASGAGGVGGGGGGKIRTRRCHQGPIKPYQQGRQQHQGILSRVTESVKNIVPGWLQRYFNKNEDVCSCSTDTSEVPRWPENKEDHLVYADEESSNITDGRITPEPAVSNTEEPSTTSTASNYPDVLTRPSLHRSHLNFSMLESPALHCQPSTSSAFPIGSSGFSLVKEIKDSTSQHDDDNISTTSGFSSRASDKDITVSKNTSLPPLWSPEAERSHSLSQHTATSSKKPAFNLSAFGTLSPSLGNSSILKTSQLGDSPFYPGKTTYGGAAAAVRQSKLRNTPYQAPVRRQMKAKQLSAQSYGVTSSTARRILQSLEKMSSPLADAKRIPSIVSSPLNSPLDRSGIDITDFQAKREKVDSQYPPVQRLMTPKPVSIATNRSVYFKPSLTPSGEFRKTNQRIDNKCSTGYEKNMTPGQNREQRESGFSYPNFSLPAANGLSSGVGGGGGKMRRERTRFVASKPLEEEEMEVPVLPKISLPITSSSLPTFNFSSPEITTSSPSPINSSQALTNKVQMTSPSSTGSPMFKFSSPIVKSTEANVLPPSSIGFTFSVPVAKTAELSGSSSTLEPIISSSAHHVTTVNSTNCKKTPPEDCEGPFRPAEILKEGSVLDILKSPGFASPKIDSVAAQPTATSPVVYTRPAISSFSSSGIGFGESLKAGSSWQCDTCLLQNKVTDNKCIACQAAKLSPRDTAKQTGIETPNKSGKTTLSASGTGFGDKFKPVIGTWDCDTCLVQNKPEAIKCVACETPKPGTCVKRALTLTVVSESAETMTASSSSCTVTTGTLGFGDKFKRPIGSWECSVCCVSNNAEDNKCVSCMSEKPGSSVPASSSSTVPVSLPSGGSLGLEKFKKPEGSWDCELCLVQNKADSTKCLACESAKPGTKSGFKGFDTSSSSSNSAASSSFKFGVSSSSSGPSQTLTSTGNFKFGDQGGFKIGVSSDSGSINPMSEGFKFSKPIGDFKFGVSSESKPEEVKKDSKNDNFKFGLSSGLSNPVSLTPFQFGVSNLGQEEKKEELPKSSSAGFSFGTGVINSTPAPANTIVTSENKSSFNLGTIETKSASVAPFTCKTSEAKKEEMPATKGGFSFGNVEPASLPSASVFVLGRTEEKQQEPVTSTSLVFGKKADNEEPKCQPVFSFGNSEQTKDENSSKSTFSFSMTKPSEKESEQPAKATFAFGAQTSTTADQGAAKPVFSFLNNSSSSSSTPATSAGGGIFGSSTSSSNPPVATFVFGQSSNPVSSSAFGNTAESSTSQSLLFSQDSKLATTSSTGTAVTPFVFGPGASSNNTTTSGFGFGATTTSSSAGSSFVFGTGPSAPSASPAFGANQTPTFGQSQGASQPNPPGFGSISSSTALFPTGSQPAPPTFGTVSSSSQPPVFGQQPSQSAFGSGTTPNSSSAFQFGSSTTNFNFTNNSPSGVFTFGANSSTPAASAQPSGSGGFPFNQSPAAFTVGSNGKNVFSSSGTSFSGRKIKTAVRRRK

Biological target: T1, Nup88 (human (endogenous in HeLa)) (UniProt Q99567)
T1 sequence: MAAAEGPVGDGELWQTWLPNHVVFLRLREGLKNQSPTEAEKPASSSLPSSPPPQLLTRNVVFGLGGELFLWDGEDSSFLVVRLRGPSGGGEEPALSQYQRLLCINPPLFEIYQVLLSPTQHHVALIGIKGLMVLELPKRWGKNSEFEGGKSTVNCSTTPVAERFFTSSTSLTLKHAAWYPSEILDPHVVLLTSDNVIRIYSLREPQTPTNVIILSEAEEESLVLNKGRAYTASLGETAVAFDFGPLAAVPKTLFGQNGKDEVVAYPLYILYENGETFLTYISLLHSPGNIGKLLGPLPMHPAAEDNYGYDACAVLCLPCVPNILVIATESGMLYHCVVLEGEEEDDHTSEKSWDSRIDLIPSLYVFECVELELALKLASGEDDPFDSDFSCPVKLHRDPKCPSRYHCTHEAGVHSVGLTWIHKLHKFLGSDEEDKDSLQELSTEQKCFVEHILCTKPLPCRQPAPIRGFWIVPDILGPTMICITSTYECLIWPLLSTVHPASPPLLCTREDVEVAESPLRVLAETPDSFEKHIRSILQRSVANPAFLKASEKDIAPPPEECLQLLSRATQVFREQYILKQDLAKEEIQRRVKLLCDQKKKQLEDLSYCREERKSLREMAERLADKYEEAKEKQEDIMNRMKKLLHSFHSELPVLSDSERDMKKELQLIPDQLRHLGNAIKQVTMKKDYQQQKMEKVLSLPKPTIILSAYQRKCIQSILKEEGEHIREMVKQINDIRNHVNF
Assay: co-IP; immunoprecipitates from mitotic HeLa cell extracts with anti-Nup214, anti-Nup88 or nonspecific rabbit antibodies (IgG); SDS/PAGE and immunoblotting; 500 ul extract per immunoprecipitation

binding	Substance
no binding	CENP-E (from UniProt Q02224 1-2701)
no binding	Nup153 (from UniProt P49790 1-1475)
